In paper PMC5562876, “The integration of Gβ and MAPK signaling cascade in zygote development” (Scientific Reports, 2017) one finds binding data, which are given here for six molecules.

Chains of the proteins cited; added tags and fusions are not shown.
UniProt Q39026: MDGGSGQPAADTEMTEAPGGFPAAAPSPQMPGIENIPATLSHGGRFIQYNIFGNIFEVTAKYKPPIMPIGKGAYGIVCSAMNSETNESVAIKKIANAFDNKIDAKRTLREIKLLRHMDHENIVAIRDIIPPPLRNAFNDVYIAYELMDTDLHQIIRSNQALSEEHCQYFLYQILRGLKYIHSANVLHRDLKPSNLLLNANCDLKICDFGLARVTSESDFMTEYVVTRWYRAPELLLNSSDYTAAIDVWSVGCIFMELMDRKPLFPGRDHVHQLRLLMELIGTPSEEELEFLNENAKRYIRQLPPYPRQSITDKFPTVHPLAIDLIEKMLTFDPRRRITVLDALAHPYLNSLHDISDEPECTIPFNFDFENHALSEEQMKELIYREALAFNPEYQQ

Results are given in words; binding and its absence hold for the method and conditions named. For some assays here: Binding seen in cells or lysates may run through a third protein. Some results given as binding are weak or reduced against the parent protein; the word gives no strength. For some assays here: Tags and fused reporters may be left off the sequences shown.

Assay [1] has as its target T1, MPK3-nLUC (Arabidopsis thaliana) (UniProt Q39023).
T1 sequence: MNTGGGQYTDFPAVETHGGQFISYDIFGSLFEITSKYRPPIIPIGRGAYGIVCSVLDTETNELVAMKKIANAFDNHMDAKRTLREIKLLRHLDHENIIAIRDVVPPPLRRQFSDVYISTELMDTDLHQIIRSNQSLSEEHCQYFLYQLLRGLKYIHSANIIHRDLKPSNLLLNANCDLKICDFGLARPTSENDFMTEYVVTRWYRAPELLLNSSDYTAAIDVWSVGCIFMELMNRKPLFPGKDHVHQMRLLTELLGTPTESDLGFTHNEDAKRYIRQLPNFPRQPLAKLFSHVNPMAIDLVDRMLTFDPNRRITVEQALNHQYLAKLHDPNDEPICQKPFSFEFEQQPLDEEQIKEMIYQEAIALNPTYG
Briefly: split reporter; firefly luciferase complementation imaging; 35S-driven nLUC and cLUC constructs co-infiltrated by agrobacterium GV3101 into N. benthamiana leaves, 3 days at 22 °C, CCD imaging.

Assay [2] has as its target T2, nLUC-YDA-Δ334 (Arabidopsis thaliana) (UniProt Q9CAD5).
T2 sequence: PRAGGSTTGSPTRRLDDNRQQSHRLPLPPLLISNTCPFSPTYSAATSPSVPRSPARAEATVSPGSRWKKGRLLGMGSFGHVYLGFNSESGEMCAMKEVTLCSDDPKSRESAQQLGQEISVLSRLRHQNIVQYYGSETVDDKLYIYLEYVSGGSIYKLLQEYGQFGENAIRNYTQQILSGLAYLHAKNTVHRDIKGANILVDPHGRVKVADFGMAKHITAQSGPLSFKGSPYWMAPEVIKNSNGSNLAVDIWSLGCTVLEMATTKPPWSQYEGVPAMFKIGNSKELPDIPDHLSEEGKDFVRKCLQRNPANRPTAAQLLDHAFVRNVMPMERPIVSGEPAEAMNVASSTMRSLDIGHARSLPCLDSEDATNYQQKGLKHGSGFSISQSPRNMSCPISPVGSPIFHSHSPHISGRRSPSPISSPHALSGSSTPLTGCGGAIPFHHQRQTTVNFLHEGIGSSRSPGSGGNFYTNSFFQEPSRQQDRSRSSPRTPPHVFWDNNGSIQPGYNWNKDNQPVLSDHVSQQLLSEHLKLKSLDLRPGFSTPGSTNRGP
Described as above.

Assay [3] addresses T3, YDA-Kinase-nLUC (Arabidopsis thaliana) (UniProt Q9CAD5).
T3 sequence: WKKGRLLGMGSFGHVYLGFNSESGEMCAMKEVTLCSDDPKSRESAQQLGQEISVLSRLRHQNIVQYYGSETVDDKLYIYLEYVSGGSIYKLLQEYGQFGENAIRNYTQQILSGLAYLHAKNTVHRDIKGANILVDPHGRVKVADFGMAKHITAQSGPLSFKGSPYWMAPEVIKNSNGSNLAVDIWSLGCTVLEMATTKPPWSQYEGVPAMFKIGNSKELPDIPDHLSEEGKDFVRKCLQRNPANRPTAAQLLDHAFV
The assay is described as above.

The target of assay [4] is MPK6-nLUC (Arabidopsis thaliana) (UniProt Q39026). Described as above.
Assay [5] has as its target T4, MKK5-nLUC (Arabidopsis thaliana) (UniProt Q8RXG3).
T4 sequence: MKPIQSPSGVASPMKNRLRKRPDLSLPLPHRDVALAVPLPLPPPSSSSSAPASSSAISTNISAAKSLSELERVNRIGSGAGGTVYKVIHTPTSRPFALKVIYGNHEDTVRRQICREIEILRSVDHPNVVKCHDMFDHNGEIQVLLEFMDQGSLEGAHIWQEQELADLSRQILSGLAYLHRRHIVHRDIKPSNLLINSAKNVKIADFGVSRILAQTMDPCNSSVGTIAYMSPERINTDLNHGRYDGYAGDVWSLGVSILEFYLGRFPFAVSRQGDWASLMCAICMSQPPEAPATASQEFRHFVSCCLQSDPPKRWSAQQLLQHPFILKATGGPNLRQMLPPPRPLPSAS
Described as above.

In assay [6] the target is T5, YDA-nLUC (Arabidopsis thaliana) (UniProt Q9CAD5).
T5 sequence: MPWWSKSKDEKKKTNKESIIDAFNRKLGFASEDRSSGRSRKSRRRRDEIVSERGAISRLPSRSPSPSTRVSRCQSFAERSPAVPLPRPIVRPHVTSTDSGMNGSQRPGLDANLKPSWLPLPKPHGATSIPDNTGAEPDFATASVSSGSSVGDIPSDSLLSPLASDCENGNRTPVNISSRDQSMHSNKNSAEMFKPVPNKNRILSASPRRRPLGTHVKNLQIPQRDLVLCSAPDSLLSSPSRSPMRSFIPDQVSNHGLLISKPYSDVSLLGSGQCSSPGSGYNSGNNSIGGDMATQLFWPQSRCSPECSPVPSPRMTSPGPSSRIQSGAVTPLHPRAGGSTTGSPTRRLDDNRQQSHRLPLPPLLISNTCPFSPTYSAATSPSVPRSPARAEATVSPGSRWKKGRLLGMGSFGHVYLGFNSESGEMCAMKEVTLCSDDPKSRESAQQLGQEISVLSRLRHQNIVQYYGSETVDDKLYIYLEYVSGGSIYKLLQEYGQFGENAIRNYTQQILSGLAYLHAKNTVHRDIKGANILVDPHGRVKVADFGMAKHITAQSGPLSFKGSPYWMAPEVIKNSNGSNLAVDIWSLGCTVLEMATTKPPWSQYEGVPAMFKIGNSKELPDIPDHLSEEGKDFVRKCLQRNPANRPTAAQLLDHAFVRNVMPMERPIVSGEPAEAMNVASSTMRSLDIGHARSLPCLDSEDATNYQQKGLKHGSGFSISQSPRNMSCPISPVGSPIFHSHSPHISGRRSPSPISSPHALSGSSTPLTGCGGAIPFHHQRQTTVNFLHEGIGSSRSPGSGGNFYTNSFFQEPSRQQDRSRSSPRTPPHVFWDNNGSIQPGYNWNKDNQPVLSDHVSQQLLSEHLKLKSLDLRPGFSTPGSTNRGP
The assay is described as above.

The target in assay [7] is T6, MKK4-nLUC (Arabidopsis thaliana) (UniProt O80397).
T6 sequence: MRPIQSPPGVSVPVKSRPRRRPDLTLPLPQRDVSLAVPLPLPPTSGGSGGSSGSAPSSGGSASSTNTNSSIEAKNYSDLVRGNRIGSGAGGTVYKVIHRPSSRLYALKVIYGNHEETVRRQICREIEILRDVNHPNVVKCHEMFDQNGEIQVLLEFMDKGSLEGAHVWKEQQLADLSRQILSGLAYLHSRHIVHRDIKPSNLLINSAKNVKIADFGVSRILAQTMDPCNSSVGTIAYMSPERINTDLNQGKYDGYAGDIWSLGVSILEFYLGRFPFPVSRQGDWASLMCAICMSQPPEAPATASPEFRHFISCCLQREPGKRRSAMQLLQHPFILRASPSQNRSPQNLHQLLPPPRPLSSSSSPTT
Described as above.

For assay [8], the target named is CFP^N-MPK6 (Arabidopsis thaliana) (UniProt Q39026). Briefly: split reporter; BiFC with CFP^N and CFP^C fusions (pSPYNE, pSPYCE) agroinfiltrated into N. benthamiana leaves, 3 days at 22 °C, confocal microscopy.
For assay [9], the target named is T7, CFP^C-MKK5 (Arabidopsis thaliana) (UniProt Q8RXG3).
T7 sequence: T4 sequence
Described as above.

Assay [10] has as its target T8, kinase domain of YODA (purified, pull-down) (Arabidopsis thaliana) (UniProt Q9CAD5).
T8 sequence: T3 sequence
Briefly: pull-down; purified fusion proteins from E. coli incubated with glutathione agarose beads, 25 mM Tris-HCl pH 7.5, 100 mM NaCl, 1 mM DTT, 1 hr; seven washes with 0.1% Triton X-100; eluted with 15 mM GSH; immunoblot; both purified.

B1: cLUC-AGB1 (protein, UniProt P49177 1-377)
chain: MSVSELKERHAVATETVNNLRDQLRQRRLQLLDTDVARYSAAQGRTRVSFGATDLVCCRTLQGHTGKVYSLDWTPERNRIVSASQDGRLIVWNALTSQKTHAIKLPCAWVMTCAFSPNGQSVACGGLDSVCSIFSLSSTADKDGTVPVSRMLTGHRGYVSCCQYVPNEDAHLITSSGDQTCILWDVTTGLKTSVFGGEFQSGHTADVLSVSISGSNPNWFISGSCDSTARLWDTRAASRAVRTFHGHEGDVNTVKFFPDGYRFGTGSDDGTCRLYDIRTGHQLQVYQPHGDGENGPVTSIAFSVSGRLLFAGYASNNTCYVWDTLLGEVVLDLGLQQDSHRNRISCLGLSADGSALCTGSWDSNLKIWAFGGHRRVI
Consider B1, for which the binding entry in assay [1] was “binds”; in assay [2], “no binding”; in assay [3], “no binding”; in [4] it was “binds”; in [5], “binds”; in [6], “no binding”. Moreover, the binding result in [7] is “binds”.

B2: CFP^C-AGB1 (protein, UniProt P49177 1-377)
chain: B1 chain
With B2, the binding result in [8] is “binds”.

B3: CFP^N-AGB1 (protein, UniProt P49177 1-377)
chain: B1 chain
B3: in assay [9], the binding entry was “binds”.

B4: AGB1 (purified, pull-down) (natural protein, Arabidopsis thaliana, UniProt P49177 1-377, looked up)
chain: B1 chain
notes: AGB1, G protein beta subunit, Arabidopsis thaliana, At4G34460; source: E. coli, purified (glutathione agarose beads)
As for B4, the binding entry in assay [10] was “no binding”.

B5: cLUC-SSP (protein, UniProt Q7XJT7 1-465)
chain: MGCCYSLSSTVDPVQDHTTDASSEPRNGGGEDPPLTKFSFSALKTATNHFSPENIVSDQTSDVVFKGRLQNGGFVAIKRFNNMAWSDPKLFLEEAQRVGKLRHKRLVNLIGYCCDGDKRFLVADFMANDTLAKRLFQRKYQTMDWSIRLRVAYFVAEALDYCNTAGFASYNNLSAYKVLFDEDGDACLSCFGLMKEINNDQITTGSVNPENVIYRFGTVLVNLLSGKQIPPSHAPEMIHRKNVFKLMDPYLKGKFSIDEANVVYKLASQCLKYEGQESPNTKEIVATLETLQTRTEAPSYEVVEMTNQEKDASSSSNLSPLGEACLRMDLASIHSILVLAGYDDDKDIIELSFEEWIQEVKELQDVRRNGDRAFVEQDFKTAIACYSQFVEERSLVYPSVYARRSLSYLFCDEPEKALLDGMHAQGVFPDWPTAFYLQSVALAKLDMNTDSADTLKEAALLEVKK
As for B5, the binding result in [2], in assay [3] and in assay [6] was “no binding” throughout.

B6: SSP (purified, pull-down) (protein, UniProt Q7XJT7 1-465)
chain: B5 chain
Regarding B6, in assay [10], the binding entry was “no binding”.
